# Results taken from PubChem BioAssay AID651784 (National Center for Advancing Translational Sciences (NCATS), 2012).
# This list was built around the results that the source calls inconclusive (neither active nor inactive); the mix of calls is not that of the screen. Where the call is inconclusive, the potency comes from a doubtful curve fit. The source made the active and inactive calls. The call rests on the fitted dose curve; in most records, active means well fitted inhibition curve with a large enough effect; inconclusive means small, poorly fitted or top-dose-only effect; inactive means no such curve, though single readings can be large or run the other way.
# Test: Acumen qHTS Assay for Inhibitors of the mTORC1 Signaling Pathway in MEF (Tsc2-/-, p53-/-) Cells: Hit Validation;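 further: phospho-rpS6 Ser235/236 immunofluorescence normalized to propidium iodide cell count; nearly all actives have a fitted effect of over 65% in size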
# Details: Acumen imaging
# Potency means the concentration at half of the fitted maximal effect.
row,Structure (SMILES),Potency
1,CC(C)(C)c1ccc(C(=O)Nc2nnc3n2CCS3)cc1,"inconclusive: 13.1 µM [inhibitor, single point]"
2,COc1cc(C(=O)Nc2ccc(NC(=O)c3ccc(C(C)(C)C)cc3)cc2)cc(OC)c1OC,active: 10.4 µM
3,O=C(CSc1cn(CC(=O)N2CCCC2)c2ccccc12)Nc1ccc(Cl)cc1,"inconclusive: 23.3 µM [inhibitor, single point]"
4,COc1ccc(-c2nc(CN3CCC(C(=O)NCCCN4CCN(c5ccccc5F)CC4)CC3)c(C)o2)cc1OC,"inconclusive: 6.56 µM [inhibitor, partial curve, poor fit]"
5,N#Cc1ccccc1Cn1c(=O)n(CCCC(=O)NCc2ccccc2Cl)c(=O)c2ccccc21,"inconclusive: 14.7 µM [inhibitor, single point]"
6,FC(F)(F)c1cccc(Nc2c3c(nc4ccc(Cl)cc24)CCC3)c1,"inconclusive: 26.1 µM [inhibitor, single point]"
7,CCOC(=O)N1CCN(Cc2nc3cc(NC(=O)CC)ccc3n2C(C)C)CC1,"inconclusive: 4.65 µM [inhibitor, full curve, poor fit]"
8,COc1cc2cc(CNc3ccc(C)cc3)c(=O)n(CC(=O)Nc3ccc(F)cc3F)c2cc1OC,"inconclusive: 26.1 µM [inhibitor, partial curve, poor fit]"
9,CCOC(=O)c1cnc2ccc(OC)cc2c1NCCc1ccccc1,"inconclusive: 13.1 µM [inhibitor, single point]"
10,Cn1nnnc1SCCCNCc1cccc(OCc2ccc(Cl)cc2)c1,"inconclusive: 23.3 µM [inhibitor, partial curve, poor fit]"
11,COc1ccc(S(=O)(=O)N(C(=O)c2ccncc2)c2ccc3oc(C)c(C(C)=O)c3c2)cc1,"inconclusive: 10.4 µM [inhibitor, partial curve, poor fit]"
12,COc1ccc(C(F)(F)F)cc1NC(=O)c1sc2nc(-c3cccs3)ccc2c1N,"inconclusive: 23.3 µM [inhibitor, single point]"
13,O=C1c2[nH]nc(-c3ccccc3O)c2C(c2ccc(Cl)cc2)N1CCc1ccccc1 (stereo not given),"inconclusive: 23.3 µM [inhibitor, single point]"
14,Cc1ccc2nc(-c3cccc(NC(=O)CSc4ccc(Cl)cc4)c3)oc2c1,"inconclusive: 13.1 µM [inhibitor, single point]"
15,COc1cc(NC(=O)c2cccc3c2C(=O)N(C2CCCCC2)C3)cc(OC)c1OC,"inconclusive: 16.5 µM [inhibitor, single point]"
16,Cn1c(/C(C#N)=C/c2ccccc2Br)nc2ccccc21,"inconclusive: 11.7 µM [inhibitor, partial curve, poor fit]"
17,CCC1CCc2nc3sc(C(=O)Nc4cccc(F)c4)c(N)c3cc2C1 (stereo not given),active: 5.21 µM
18,Cc1n[nH]c(C)c1S(=O)(=O)N(CC(=O)Nc1ccc(C(F)(F)F)cc1)c1ccc(C(C)C)cc1,"inconclusive: 26.1 µM [inhibitor, single point]"

row,Structure (SMILES),Potency
1,CCOc1ccc(-c2cnc(NCc3ccc(C(F)(F)F)cc3)n2C)cc1,"inconclusive: 11.7 µM [inhibitor, single point]"
2,CN(C)c1ccc(NC(=O)Cn2cc(S(=O)(=O)Cc3ccccc3Cl)c3ccccc32)cc1,"inconclusive: 5.21 µM [inhibitor, full curve]"
3,CCS(=O)(=O)c1ncc(Cl)c(C(=O)N2CCN(c3ccc(OC)cc3)CC2)n1,"inconclusive: 7.36 µM [inhibitor, partial curve, poor fit]"
4,CCS(=O)(=O)c1oc(-c2ccc(F)cc2)nc1S(=O)(=O)c1ccc(Br)cc1,active: 4.14 µM
5,CCN(Cc1nc(-c2ccc(OC)cc2)oc1C)S(=O)(=O)c1ccc(Cl)cc1,"inconclusive: 0.0261 µM [inhibitor, full curve, poor fit]"
6,CCN(CC)CCOC(=O)c1ccc(NC(=O)c2nn(-c3ccc(C)cc3)c(=O)c3c2c2ccccc2n3C)cc1,active: 4.14 µM
7,CCOc1ccccc1NC(=O)CN1C(=O)C(=O)c2ccccc21,active: 18.5 µM
8,Cc1ccc(NC(=O)CSc2ccc(-c3ccccn3)nn2)cc1F,"inconclusive: 1.31 µM [inhibitor, single point]"
9,Cc1cccc(C2C=C(c3ccc(C)c(C)c3)Nc3nnnn32)c1 (stereo not given),"inconclusive: 3.29 µM [inhibitor, partial curve, poor fit]"
10,CC(Nc1oc(-c2ccc(COc3ccccc3)o2)nc1C#N)c1ccccc1 (stereo not given),"inconclusive: 20.7 µM [inhibitor, single point]"
11,COc1ccc(NC(=O)Cn2c(=O)n(-c3ccccc3)c(=O)c3ccc(C(=O)NCc4ccc5c(c4)OCO5)cc32)cc1,"inconclusive: 23.3 µM [inhibitor, single point]"
12,Cc1cccc(NC(=O)Cn2nc(-c3ccc(Cl)cc3)c3ccccc3c2=O)c1,"inconclusive: 18.5 µM [inhibitor, partial curve, poor fit]"
13,N=c1n(CCN2CCCCC2)c2ccccc2n1CC(O)COc1ccc(Cl)cc1Cl (stereo not given),active: 5.21 µM
14,Cc1cccc(NC(c2cccc(Cl)c2)c2ccc3cccnc3c2O)n1 (stereo not given),"inconclusive: 3.29 µM [inhibitor, full curve]"
15,CCOC(=O)N1CCN(Cc2nc3cc(NC(=O)CC(C)C)ccc3n2C(C)C)CC1,active: 2.61 µM
16,CN(CCCNC(=O)c1cc2c(Cl)nc3ccccc3c2s1)Cc1ccccc1,"inconclusive: 0.0656 µM [inhibitor, full curve, poor fit]"
17,CCCCN(C)CC(O)Cn1cc(/C=C/C(=O)c2ccc(C)cc2)c2ccccc21 (stereo not given),active: 13.1 µM

# Look-ups from the entries so far.
# For Potency, Cc1ccc(NC(=O)CSc2ccc(-c3ccccn3)nn2)cc1F reads inconclusive: 1.31 µM [inhibitor, single point]
# For Potency, CCN(CC)CCOC(=O)c1ccc(NC(=O)c2nn(-c3ccc(C)cc3)c(=O)c3c2c2ccccc2n3C)cc1 reads active: 4.14 µM
